Data as given in PubChem BioAssay AID1224828 (NIAID, 2016)
This is an unselected part of about 17,000 deposited reagents. 762 of all reagents (4.5%) were called active. 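Active calls include both raised and lowered p65 entry, mostly lowered; wells with fewer than 50 cells lack a z-score.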 Raw values vary from plate to plate and are shown uncorrected.

Test: 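Knock-downs that increase or decrease LPS-induced p65 nuclear translocation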 (primary screen)
System: mouse RAW264.7 G9 macrophage reporter cells (GFP-p65, Tnf promoter-mCherry)
Reagent: siRNA pool against mouse genes, 100 nM
Time to read-out: 2 days siRNA transfection, then 40 min LPS before fixation
Treatment: LPS (Salmonella minnesota R595) at 10 ng/ml
Measurement: 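Microscopy ratio of nuclear to perinuclear-ring GFP-p65 signal, scaled to the plate median; gene score is the average of two replicate robust z-scores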
Reading the numbers: p65 translocation robust z-score: higher = more nuclear NF-kappaB p65 after LPS than the plate median; nuclear/cytoplasmic p65 ratio: higher = more nuclear NF-kappaB p65
Active means: 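Called active when z exceeds 3.3 or falls under -1.56 (median of Tlr4 controls), giving activity score of at least 50; no calls for control wells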
Meaning of the calls: active = hit (p65 shift raised or lowered); inactive = no clear change

The opening 2 records as a preview:
Tspan1 → nuclear/cytoplasmic p65 ratio, rep 1 = 1.48; nuclear/cytoplasmic p65 ratio, rep 2 = 1.42; low cell count flag = fewer than 50 cells per well; well left out of scoring; call = inactive
Vsx2 → p65 translocation robust z-score = 0.47; nuclear/cytoplasmic p65 ratio, rep 1 = 1.72; nuclear/cytoplasmic p65 ratio, rep 2 = 1.8; low cell count flag = enough cells to score; call = inactive

Results, from the start:
Tspan1 → nuclear/cytoplasmic p65 ratio, rep 1 = 1.48; nuclear/cytoplasmic p65 ratio, rep 2 = 1.42; low cell count flag = fewer than 50 cells per well; well left out of scoring; call = inactive
Vsx2 → p65 translocation robust z-score = 0.47; nuclear/cytoplasmic p65 ratio, rep 1 = 1.72; nuclear/cytoplasmic p65 ratio, rep 2 = 1.8; low cell count flag = enough cells to score; call = inactive
Pde1b → p65 translocation robust z-score = 0; nuclear/cytoplasmic p65 ratio, rep 1 = 1.46; nuclear/cytoplasmic p65 ratio, rep 2 = 1.32; low cell count flag = enough cells to score; call = inactive
Slc52a3 → nuclear/cytoplasmic p65 ratio, rep 1 = 1.39; nuclear/cytoplasmic p65 ratio, rep 2 = 2.47; low cell count flag = fewer than 50 cells per well; well left out of scoring; call = inactive
Ppp2r1a → p65 translocation robust z-score = 0.05; nuclear/cytoplasmic p65 ratio, rep 1 = 1.57; nuclear/cytoplasmic p65 ratio, rep 2 = 1.36; low cell count flag = enough cells to score; call = inactive
Cpped1 → p65 translocation robust z-score = 0.64; nuclear/cytoplasmic p65 ratio, rep 1 = 1.59; nuclear/cytoplasmic p65 ratio, rep 2 = 1.54; low cell count flag = enough cells to score; call = inactive
P2ry10 → p65 translocation robust z-score = -1.66; nuclear/cytoplasmic p65 ratio, rep 1 = 1.28; nuclear/cytoplasmic p65 ratio, rep 2 = 1.4; low cell count flag = enough cells to score; call = active
Tfg → p65 translocation robust z-score = 0.12; nuclear/cytoplasmic p65 ratio, rep 1 = 1.51; nuclear/cytoplasmic p65 ratio, rep 2 = 1.56; low cell count flag = enough cells to score; call = inactive
Steap4 → nuclear/cytoplasmic p65 ratio, rep 1 = 1.12; nuclear/cytoplasmic p65 ratio, rep 2 = 1.14; low cell count flag = fewer than 50 cells per well; well left out of scoring; call = inactive
Tdpoz1 → p65 translocation robust z-score = -0.52; nuclear/cytoplasmic p65 ratio, rep 1 = 1.34; nuclear/cytoplasmic p65 ratio, rep 2 = 1.13; low cell count flag = enough cells to score; call = inactive
AI182371 → p65 translocation robust z-score = -0.22; nuclear/cytoplasmic p65 ratio, rep 1 = 1.67; nuclear/cytoplasmic p65 ratio, rep 2 = 1.55; low cell count flag = enough cells to score; call = inactive
Mlxipl → p65 translocation robust z-score = -1.33; nuclear/cytoplasmic p65 ratio, rep 1 = 1.43; nuclear/cytoplasmic p65 ratio, rep 2 = 1.3; low cell count flag = enough cells to score; call = inactive
Trpm7 → p65 translocation robust z-score = 0.09; nuclear/cytoplasmic p65 ratio, rep 1 = 1.67; nuclear/cytoplasmic p65 ratio, rep 2 = 1.42; low cell count flag = enough cells to score; call = inactive
Pdc → p65 translocation robust z-score = -0.55; nuclear/cytoplasmic p65 ratio, rep 1 = 1.43; nuclear/cytoplasmic p65 ratio, rep 2 = 1.66; low cell count flag = enough cells to score; call = inactive
Vtcn1 → p65 translocation robust z-score = -0.07; nuclear/cytoplasmic p65 ratio, rep 1 = 1.57; nuclear/cytoplasmic p65 ratio, rep 2 = 1.83; low cell count flag = enough cells to score; call = inactive
Cited4 → p65 translocation robust z-score = 0.14; nuclear/cytoplasmic p65 ratio, rep 1 = 1.41; nuclear/cytoplasmic p65 ratio, rep 2 = 1.46; low cell count flag = enough cells to score; call = inactive
Gm9517 → nuclear/cytoplasmic p65 ratio, rep 1 = 1.21; nuclear/cytoplasmic p65 ratio, rep 2 = 1.04; low cell count flag = fewer than 50 cells per well; well left out of scoring; call = inactive
Nkx2-5 → p65 translocation robust z-score = 1.13; nuclear/cytoplasmic p65 ratio, rep 1 = 1.54; nuclear/cytoplasmic p65 ratio, rep 2 = 1.62; low cell count flag = enough cells to score; call = inactive
Dpp3 → p65 translocation robust z-score = -0.84; nuclear/cytoplasmic p65 ratio, rep 1 = 1.32; nuclear/cytoplasmic p65 ratio, rep 2 = 1.31; low cell count flag = enough cells to score; call = inactive
Map3k8 → p65 translocation robust z-score = -0.5; nuclear/cytoplasmic p65 ratio, rep 1 = 2.13; nuclear/cytoplasmic p65 ratio, rep 2 = 1.31; low cell count flag = enough cells to score; call = inactive
Adamtsl2 → p65 translocation robust z-score = 1.92; nuclear/cytoplasmic p65 ratio, rep 2 = 1.91; low cell count flag = enough cells to score; call = inactive
